Results deposited as PubChem BioAssay AID493246 (Drosophila RNAi Screening Center, 2011)
The screen tested about 21,000 reagents; this is an unselected part of those that have a named target and a result. In the full data, 429 (2%) are marked active. 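Values are raw and not normalised between plates; calls rest on per-plate z-scores that were not deposited.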 Entries without a mark were called inactive. Not stated in the record: the amount of reagent, the time to read-out.

- Purpose: 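Identify essential fly genes by loss of cell viability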 (primary screen)
- Cells: Drosophila Kc and S2R+ cells
- Knock-down reagent: long dsRNA against Drosophila genes
- Measured: 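Cell number per well after knock-down, printed as raw plate values; calls were based on per-plate z-scores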
- Direction: Kc cell number and S2R+ cell number: higher = more cells remaining
- Call rule: 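Active when the per-plate z-score of cell number is 3 or more in the direction of fewer cells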

Dlg5 (Discs large 5)
- Kc cell number, rep 1: 1.18e6
- Kc cell number, rep 2: 1.21e6
- S2R+ cell number, rep 1: 9.53e5
- S2R+ cell number, rep 2: 1.03e6

Orc4 (Origin recognition complex subunit 4)
- Kc cell number, rep 1: 1.25e6
- Kc cell number, rep 2: 1.35e6
- S2R+ cell number, rep 1: 8.90e5
- S2R+ cell number, rep 2: 8.74e5

CG17292
- Kc cell number, rep 1: 1.18e6
- Kc cell number, rep 2: 1.47e6
- S2R+ cell number, rep 1: 2.20e5
- S2R+ cell number, rep 2: 1.85e5

CG33342 (HDC15381)
- Kc cell number, rep 1: 1.16e6
- Kc cell number, rep 2: 1.59e6
- S2R+ cell number, rep 1: 1.10e6
- S2R+ cell number, rep 2: 1.12e6

CG3502
- Kc cell number, rep 1: 1.52e6
- Kc cell number, rep 2: 1.60e6
- S2R+ cell number, rep 1: 1.02e6
- S2R+ cell number, rep 2: 1.01e6

CG14102
- Kc cell number, rep 1: 1.30e6
- Kc cell number, rep 2: 1.36e6
- S2R+ cell number, rep 1: 1.26e6
- S2R+ cell number, rep 2: 1.34e6

Septin2 (Septin 2)
- Kc cell number, rep 1: 1.84e6
- Kc cell number, rep 2: 1.85e6
- S2R+ cell number, rep 1: 1.34e6
- S2R+ cell number, rep 2: 1.42e6

Spn55B (Serpin 55B)
- Kc cell number, rep 1: 1.33e6
- Kc cell number, rep 2: 1.35e6
- S2R+ cell number, rep 1: 1.06e6
- S2R+ cell number, rep 2: 1.22e6

Ufl1 (UFM1 specific ligase 1)
- Kc cell number, rep 1: 1.64e6
- Kc cell number, rep 2: 1.68e6
- S2R+ cell number, rep 1: 1.33e6
- S2R+ cell number, rep 2: 1.44e6

Jon99Ci (Jonah 99Ci)
- Kc cell number, rep 1: 1.47e6
- Kc cell number, rep 2: 1.46e6
- S2R+ cell number, rep 1: 1.07e6
- S2R+ cell number, rep 2: 1.20e6

Prp8 (pre-mRNA processing factor 8)
- Kc cell number, rep 1: 1.23e6
- Kc cell number, rep 2: 1.36e6
- S2R+ cell number, rep 1: 7.54e5
- S2R+ cell number, rep 2: 8.57e5

CG4286
- Kc cell number, rep 1: 1.49e6
- Kc cell number, rep 2: 1.58e6
- S2R+ cell number, rep 1: 1.26e6
- S2R+ cell number, rep 2: 3.47e5

2 entries from above, ordered by “S2R+ cell number, rep 1”, descending.
Ufl1 (UFM1 specific ligase 1)
- Kc cell number, rep 1: 1.64e6
- Kc cell number, rep 2: 1.68e6
- S2R+ cell number, rep 1: 1.33e6
- S2R+ cell number, rep 2: 1.44e6

Jon99Ci (Jonah 99Ci)
- Kc cell number, rep 1: 1.47e6
- Kc cell number, rep 2: 1.46e6
- S2R+ cell number, rep 1: 1.07e6
- S2R+ cell number, rep 2: 1.20e6
